# Source: paper doi:10.1101/2021.10.31.466654
# Protein sequences, listed by entry. Tags and fused reporters are not part of them. Residues count along the entry.
# UniProt P07237, residues 18-508: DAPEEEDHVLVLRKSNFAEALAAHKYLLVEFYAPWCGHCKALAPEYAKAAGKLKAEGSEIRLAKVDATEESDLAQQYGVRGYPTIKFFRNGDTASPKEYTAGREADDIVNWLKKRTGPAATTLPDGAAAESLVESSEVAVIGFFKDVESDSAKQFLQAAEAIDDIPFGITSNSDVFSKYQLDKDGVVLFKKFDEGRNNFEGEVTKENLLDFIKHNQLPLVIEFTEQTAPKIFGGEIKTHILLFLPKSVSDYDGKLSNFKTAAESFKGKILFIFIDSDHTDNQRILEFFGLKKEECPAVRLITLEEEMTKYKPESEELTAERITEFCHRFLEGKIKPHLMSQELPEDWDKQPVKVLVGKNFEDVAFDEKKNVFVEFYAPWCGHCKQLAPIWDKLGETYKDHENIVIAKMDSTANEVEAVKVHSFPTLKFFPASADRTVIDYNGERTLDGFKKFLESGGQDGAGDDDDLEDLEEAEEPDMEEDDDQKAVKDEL
# Biological target: NKp46-Ig (extracellular domain of NKp46 fused to the Fc region of human IgG1) (human) (UniProt O76036)
# Test: affinity purification with mass spectrometry
row,Substance,binding
1,"protein disulfide isomerase PDIA1, endogenous in JEG-3 (from UniProt P07237 18-508)",binds
2,"calreticulin (CRT), endogenous in JEG-3 (from UniProt P27797 18-417)",binds

# No constants are given. Whether binding was seen depends on the method and setting. In cells and extracts the contact can be indirect. These calls come from enrichment with a bait or labelling near it, and not all partners need be listed.
